In article PMC3398014:
Results are given in words; binding and its absence hold for the method and conditions named. Binding seen in cells or lysates may run through a third protein. For some of these results: A result given as binding can be weak or reduced; the word gives no strength.

Chains of the proteins cited; added tags and fusions are not shown. Lines headed by an entry give the natural chain unless they say otherwise; changes in a name come on top. Residues count along the entry.
UniProt P32004: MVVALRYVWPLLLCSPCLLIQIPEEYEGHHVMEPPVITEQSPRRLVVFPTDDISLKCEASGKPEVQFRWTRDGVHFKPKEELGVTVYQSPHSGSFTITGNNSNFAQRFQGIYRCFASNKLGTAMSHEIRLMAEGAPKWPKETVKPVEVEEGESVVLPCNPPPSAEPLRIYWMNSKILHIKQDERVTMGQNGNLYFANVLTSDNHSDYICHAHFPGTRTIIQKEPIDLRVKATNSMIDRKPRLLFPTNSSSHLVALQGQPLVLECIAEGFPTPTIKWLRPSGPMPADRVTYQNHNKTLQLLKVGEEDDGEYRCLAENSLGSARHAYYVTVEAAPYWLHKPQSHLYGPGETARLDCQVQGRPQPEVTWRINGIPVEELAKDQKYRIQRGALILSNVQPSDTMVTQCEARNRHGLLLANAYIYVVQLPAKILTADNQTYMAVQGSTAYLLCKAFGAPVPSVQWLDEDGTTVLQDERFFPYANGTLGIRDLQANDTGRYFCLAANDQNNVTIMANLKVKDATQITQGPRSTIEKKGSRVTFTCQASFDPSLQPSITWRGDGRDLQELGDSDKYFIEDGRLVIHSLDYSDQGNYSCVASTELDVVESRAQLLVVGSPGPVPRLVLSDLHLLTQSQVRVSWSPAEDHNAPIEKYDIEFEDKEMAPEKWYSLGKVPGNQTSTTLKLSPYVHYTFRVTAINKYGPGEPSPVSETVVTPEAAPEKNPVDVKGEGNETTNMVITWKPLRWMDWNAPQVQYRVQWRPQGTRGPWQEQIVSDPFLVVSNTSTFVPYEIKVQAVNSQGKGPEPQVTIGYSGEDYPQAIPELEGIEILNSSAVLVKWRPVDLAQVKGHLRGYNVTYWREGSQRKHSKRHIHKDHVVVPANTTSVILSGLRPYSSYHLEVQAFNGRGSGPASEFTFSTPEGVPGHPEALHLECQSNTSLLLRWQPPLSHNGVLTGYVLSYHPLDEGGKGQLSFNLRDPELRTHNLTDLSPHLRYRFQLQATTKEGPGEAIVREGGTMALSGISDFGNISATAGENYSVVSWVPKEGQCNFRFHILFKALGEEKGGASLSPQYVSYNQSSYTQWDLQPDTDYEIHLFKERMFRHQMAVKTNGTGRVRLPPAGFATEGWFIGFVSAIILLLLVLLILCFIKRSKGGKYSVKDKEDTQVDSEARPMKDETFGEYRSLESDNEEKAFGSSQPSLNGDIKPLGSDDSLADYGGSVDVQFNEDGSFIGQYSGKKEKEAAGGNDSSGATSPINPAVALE
UniProt P21860, residues 20-1342: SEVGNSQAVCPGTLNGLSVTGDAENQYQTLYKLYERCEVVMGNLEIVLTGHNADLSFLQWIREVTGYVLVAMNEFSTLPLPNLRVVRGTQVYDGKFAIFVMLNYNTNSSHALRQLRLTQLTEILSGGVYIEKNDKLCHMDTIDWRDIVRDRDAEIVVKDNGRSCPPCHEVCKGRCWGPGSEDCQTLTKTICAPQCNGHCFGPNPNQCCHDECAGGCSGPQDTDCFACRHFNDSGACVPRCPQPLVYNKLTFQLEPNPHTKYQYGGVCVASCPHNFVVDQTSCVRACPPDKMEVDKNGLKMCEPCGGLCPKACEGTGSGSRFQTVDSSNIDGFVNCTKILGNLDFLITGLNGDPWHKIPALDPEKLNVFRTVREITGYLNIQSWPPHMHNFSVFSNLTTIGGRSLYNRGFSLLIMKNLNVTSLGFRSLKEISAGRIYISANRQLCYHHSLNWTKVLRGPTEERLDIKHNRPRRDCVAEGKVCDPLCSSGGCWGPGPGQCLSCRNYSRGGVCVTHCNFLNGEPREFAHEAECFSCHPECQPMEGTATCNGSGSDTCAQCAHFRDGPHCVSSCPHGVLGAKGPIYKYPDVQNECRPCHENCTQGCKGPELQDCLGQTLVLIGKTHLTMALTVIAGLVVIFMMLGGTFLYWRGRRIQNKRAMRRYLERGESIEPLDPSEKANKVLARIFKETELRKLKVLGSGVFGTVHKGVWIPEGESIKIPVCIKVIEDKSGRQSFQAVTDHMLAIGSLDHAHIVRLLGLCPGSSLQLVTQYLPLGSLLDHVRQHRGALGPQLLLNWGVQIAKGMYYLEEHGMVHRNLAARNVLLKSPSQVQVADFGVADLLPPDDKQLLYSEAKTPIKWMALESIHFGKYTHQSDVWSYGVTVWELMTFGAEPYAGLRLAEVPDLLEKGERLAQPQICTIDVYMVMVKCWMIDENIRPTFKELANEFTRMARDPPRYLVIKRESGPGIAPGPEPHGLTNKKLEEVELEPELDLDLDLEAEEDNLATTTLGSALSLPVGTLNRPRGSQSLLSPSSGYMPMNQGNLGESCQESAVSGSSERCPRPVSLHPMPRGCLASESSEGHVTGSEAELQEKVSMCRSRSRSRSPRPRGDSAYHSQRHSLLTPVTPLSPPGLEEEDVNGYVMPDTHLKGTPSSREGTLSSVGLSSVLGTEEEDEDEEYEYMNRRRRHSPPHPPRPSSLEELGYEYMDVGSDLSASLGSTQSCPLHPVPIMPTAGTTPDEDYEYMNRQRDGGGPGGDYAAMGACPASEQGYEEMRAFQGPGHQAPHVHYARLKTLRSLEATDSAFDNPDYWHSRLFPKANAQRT

Assays:
Experiment in all cases: co-IP; HEK293 cells co-transfected; lysis in 50 mM Tris, 150 mM NaCl, 2 mM EDTA, 0.5% Triton X-100; antibody-loaded protein A-Sepharose, 3 h on ice; western blot of the partner; done in both directions
[1] = molecular target: ΔFn-L1CAM (human) (UniProt P32004)
[2] = molecular target: ΔIg1-3-L1CAM (human) (UniProt P32004)
[3] = molecular target: ΔIg-L1CAM (human) (UniProt P32004)
[4] = molecular target: ΔIg4-6-L1CAM (human) (UniProt P32004)

binding [1]: binds
binding [2]: binds
binding [3]: no binding
binding [4]: binds
Substance: erbB3 receptor (from UniProt P21860 20-1342)
